Measurements from patent US20240029819A1, “AGENTS BINDING MODIFIED ANTIGEN PRESENTED PEPTIDES AND USE OF SAME” (Yeda Research and Development Co. Ltd., priority 2020, published 2024).

Target: HLA-A0201 (recombinant MHC allele, ProImmune REVEAL binding assay) (human)
Test: ProImmune REVEAL in-vitro MHC-peptide binding assay

binding | Binder
binds | KVMDEVAGI (methylated lysine at position 1, K(me)) [K(me)VMDEVAGI (SEQ ID NO: 9194 having the recited modification)]
binds | TLIESKLPV (methylated lysine at position 6, K(me)) [TLIESK(me)LPV (SEQ ID NO: 10823 having the recited modification)]
binds | KVMDEVAGI […, unmodified form of SEQ ID NO: 9194]
binds | TLNSLIYTL […, unmodified form of SEQ ID NO: 10824]
binds | TLIESKLPV [… (SEQ ID NO: 10823), unmodified form]

These are yes or no findings as the source states them, for the method shown. Binding calls can cover weak binding; strength is not graded here.
